In the supplement of paper PMC10849652:
The other results are listed elsewhere or left out.

Sequences of proteins named here, by UniProt entry; tags and fusion partners are left off. A change or cut given only in a name is not applied to a line headed by its entry.
UniProt Q99708: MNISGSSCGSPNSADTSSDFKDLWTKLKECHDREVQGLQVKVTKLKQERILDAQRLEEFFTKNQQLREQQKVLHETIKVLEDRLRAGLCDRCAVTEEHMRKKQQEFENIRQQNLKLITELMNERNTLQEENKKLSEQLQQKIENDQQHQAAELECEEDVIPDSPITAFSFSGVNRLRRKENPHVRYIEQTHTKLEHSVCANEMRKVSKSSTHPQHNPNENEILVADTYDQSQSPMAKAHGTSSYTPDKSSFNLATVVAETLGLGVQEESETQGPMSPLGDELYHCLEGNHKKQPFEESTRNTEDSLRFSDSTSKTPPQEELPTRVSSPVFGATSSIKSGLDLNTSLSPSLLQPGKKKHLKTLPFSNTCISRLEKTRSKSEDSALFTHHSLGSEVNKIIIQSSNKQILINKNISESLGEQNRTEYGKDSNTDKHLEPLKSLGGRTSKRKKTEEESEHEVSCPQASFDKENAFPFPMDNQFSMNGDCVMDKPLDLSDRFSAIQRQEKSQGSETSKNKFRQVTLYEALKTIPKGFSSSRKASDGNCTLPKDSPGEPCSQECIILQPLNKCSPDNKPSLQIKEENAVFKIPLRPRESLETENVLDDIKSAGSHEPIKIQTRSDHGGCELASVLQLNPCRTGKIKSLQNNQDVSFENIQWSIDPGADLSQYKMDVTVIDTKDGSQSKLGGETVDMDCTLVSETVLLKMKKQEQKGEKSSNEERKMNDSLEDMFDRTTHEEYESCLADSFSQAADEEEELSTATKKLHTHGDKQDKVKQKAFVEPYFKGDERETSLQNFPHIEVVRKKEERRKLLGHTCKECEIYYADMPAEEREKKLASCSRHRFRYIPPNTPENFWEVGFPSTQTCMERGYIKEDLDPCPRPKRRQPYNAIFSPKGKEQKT
UniProt Q9HD47: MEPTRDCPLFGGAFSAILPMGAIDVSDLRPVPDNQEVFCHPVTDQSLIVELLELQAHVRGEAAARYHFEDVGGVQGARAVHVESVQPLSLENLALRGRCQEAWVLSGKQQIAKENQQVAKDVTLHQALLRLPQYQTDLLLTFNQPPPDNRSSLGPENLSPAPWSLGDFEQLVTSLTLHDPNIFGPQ
UniProt Q86WH2: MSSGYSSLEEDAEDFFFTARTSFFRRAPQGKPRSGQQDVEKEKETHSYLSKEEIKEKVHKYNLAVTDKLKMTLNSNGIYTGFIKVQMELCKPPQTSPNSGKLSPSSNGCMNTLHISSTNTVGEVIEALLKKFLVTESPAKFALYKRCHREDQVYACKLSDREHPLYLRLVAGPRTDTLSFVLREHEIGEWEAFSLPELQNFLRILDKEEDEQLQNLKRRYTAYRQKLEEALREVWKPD
UniProt Q8N0V3: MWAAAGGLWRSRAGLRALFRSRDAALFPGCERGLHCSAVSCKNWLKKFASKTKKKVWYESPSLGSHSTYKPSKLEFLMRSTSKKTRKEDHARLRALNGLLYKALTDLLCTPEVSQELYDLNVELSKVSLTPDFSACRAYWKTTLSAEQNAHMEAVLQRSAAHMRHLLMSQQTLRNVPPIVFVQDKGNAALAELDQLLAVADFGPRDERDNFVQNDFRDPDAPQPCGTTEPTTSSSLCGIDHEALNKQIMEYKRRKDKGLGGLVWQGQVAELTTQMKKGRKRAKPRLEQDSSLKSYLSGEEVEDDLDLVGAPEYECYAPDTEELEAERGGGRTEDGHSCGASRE
UniProt A4D1S5: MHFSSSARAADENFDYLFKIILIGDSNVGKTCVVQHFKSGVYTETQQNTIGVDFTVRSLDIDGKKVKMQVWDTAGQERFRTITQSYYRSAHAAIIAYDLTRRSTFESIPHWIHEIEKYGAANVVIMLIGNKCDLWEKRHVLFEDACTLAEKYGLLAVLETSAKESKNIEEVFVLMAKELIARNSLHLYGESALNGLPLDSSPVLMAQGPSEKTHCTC
UniProt Q9H6Z4: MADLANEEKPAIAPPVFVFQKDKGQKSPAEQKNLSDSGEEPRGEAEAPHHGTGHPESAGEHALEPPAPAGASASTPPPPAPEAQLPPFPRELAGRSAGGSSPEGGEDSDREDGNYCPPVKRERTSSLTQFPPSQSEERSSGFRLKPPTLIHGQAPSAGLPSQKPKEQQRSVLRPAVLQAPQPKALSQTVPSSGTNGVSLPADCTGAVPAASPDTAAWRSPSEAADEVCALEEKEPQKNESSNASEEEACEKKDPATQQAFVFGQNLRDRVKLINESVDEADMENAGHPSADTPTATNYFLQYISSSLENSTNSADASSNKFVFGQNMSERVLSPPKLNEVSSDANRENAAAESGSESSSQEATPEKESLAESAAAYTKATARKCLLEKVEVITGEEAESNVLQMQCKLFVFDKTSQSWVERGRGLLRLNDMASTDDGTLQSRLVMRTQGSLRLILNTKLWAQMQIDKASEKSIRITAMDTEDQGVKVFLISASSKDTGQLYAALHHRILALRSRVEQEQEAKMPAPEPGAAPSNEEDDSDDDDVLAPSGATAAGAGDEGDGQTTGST
UniProt Q5T8P6: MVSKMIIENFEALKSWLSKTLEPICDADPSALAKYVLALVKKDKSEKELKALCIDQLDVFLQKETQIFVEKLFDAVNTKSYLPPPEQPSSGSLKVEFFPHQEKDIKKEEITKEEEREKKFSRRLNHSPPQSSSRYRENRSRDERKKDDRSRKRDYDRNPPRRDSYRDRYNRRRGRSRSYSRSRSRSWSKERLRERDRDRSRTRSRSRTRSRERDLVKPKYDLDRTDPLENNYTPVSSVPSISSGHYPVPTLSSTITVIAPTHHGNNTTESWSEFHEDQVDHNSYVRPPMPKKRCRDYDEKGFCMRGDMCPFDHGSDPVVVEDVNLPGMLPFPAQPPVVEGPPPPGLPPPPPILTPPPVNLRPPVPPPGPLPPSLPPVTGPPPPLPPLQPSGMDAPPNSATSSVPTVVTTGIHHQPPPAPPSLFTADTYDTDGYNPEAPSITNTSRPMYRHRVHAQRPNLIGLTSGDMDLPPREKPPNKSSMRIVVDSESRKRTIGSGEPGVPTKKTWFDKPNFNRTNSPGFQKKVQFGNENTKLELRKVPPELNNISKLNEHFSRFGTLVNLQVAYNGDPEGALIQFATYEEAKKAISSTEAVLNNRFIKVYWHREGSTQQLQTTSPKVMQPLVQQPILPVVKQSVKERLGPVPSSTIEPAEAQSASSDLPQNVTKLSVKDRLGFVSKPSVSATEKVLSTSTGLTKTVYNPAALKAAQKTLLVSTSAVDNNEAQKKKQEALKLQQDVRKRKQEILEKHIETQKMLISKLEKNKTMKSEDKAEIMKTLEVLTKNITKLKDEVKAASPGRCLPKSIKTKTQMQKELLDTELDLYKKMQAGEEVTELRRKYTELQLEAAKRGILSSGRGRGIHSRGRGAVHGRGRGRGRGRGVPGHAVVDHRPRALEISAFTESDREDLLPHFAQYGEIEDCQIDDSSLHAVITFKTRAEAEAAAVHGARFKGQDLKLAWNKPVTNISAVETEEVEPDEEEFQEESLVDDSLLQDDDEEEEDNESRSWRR
UniProt Q14644: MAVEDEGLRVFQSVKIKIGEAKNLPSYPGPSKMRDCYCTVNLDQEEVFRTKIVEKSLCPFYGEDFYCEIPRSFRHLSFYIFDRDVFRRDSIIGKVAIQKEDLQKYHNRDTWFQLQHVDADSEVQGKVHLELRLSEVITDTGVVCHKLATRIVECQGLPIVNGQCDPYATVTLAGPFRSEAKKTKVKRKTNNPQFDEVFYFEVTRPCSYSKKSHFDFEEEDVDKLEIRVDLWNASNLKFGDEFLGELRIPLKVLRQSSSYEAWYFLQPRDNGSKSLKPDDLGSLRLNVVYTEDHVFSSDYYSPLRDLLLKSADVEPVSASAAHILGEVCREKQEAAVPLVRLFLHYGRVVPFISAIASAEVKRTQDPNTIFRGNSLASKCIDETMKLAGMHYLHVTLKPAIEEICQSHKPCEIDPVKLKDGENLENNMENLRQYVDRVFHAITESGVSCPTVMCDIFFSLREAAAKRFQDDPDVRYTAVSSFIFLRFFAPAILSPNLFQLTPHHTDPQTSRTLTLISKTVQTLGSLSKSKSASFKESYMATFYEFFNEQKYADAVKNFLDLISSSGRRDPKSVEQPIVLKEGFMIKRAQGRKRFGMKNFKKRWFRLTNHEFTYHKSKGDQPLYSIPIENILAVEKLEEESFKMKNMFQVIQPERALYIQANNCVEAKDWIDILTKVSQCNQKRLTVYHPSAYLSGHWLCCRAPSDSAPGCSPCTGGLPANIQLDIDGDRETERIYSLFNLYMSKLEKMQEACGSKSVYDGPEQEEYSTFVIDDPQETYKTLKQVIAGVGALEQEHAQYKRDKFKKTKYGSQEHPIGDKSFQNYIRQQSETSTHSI
UniProt Q9NW13: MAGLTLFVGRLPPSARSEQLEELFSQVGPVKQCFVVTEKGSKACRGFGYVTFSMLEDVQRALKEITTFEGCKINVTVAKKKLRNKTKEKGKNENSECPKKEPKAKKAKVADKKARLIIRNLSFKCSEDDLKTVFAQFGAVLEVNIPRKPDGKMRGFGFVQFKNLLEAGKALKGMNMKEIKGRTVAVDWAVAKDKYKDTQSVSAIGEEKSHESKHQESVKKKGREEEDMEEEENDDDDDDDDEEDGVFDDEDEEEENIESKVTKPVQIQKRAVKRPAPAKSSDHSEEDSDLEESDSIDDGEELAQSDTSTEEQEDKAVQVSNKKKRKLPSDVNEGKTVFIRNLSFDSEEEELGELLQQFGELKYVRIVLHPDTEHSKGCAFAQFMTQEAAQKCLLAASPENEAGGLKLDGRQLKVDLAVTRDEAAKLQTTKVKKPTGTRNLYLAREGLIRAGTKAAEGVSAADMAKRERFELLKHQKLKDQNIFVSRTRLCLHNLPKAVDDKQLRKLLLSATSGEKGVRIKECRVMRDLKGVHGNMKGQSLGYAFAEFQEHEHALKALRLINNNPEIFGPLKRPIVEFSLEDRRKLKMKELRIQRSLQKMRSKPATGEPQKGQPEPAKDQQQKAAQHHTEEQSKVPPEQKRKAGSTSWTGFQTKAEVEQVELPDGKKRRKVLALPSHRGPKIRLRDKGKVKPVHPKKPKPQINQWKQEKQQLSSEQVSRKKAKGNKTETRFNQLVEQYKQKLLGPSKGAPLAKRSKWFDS
UniProt Q15291, whole entry, looked up: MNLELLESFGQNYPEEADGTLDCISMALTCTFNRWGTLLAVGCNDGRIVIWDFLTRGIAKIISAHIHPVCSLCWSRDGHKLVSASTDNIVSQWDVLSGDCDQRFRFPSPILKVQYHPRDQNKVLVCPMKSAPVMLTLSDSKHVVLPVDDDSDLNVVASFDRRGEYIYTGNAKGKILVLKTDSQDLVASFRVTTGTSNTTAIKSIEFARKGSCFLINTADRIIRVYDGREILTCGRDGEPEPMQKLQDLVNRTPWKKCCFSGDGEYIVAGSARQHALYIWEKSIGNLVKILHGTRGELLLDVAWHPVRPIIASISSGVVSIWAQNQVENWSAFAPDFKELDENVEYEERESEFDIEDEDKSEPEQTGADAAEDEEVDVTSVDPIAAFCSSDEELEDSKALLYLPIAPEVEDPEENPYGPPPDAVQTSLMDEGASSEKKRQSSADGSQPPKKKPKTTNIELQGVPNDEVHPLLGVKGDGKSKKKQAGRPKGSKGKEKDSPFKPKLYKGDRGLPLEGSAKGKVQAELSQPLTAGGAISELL
UniProt Q86YS3: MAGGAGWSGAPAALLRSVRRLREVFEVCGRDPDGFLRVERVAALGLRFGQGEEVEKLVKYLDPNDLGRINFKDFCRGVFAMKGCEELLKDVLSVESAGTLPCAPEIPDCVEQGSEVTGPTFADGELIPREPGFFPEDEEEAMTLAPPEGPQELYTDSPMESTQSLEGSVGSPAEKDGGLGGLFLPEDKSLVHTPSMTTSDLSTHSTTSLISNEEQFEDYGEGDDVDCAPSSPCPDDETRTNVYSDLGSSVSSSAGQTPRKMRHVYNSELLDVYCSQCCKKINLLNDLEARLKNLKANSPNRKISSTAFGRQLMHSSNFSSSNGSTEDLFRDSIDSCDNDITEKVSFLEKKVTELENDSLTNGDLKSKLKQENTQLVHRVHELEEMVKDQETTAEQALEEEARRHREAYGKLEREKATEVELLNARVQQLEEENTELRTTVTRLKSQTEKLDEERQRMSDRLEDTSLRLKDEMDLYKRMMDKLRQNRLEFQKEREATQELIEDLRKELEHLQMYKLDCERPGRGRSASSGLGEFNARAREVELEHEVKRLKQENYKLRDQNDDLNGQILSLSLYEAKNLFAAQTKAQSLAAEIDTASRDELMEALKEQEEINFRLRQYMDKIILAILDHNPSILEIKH

Experiments:
Test in all cases: log2 fold change, soluble protein after heating vs DMSO (PISA); higher = thermal stabilisation; K562 cells, 10 uM, 30 min; active = over 0.2 and 3.5 SD of the protein, either way, in both replicates (recomputed)
[1] = compound: CN1CCc2c(c3ccccc3n2Cc2ccc(C(=O)NO)cc2)C1 [Tubastatin A]
How it was run: (§1)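 Soluble protein was defined as the supernatant after 21,000xg for 90 min. It came from K562 cells at 2×10^6 cells/mL given 10 μM compound for 30 min, heated in aliquots for 3 min across 48°C-58°C, pooled, and extracted in PBS with 0.5% NP-40 at 4°C, and was quantified by TMTpro 16plex LC-MS/MS with equalised channel sums. Thermal stability against control samples, from duplicates, is reported as log2 fold change.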

[2] = compound: CNC(=O)C1=CC=CC=C1NC2=NC(=NC=C2Cl)NC3=C(C=C(C=C3)N4CCOCC4)OC
How it was run: as §1

[3] = compound: CNCc1ccc(-c2[nH]c3cc(F)cc4c3c2CCNC4=O)cc1 [rucaparib]
How it was run: as §1

[4] = compound: COC(=O)N[C@@H](C)CNc1nccc(-c2cn(C(C)C)nc2-c2cc(Cl)cc(NS(C)(=O)=O)c2F)n1 [encorafenib]
How it was run: as §1

[5] = compound: CN1CC[C@H](c2c(O)cc(O)c3c(=O)cc(-c4ccccc4Cl)oc23)[C@H](O)C1 [alvocidib]
How it was run: as §1

[6] = compound: CNC(=O)c1ccc(Nc2ncc(C(F)(F)F)c(NCc3nccnc3N(C)S(C)(=O)=O)n2)cc1 [defactinib]
How it was run: as §1

[7] = compound: COC(=O)[C@H](CCSC)NC(=O)C1=C(C=C(C=C1)NC[C@H](CS)N)C2=CC=CC=C2
How it was run: as §1

[8] = compound: CN1CCN(c2nc(C3=C(c4c[nH]c5ccccc45)C(=O)NC3=O)c3ccccc3n2)CC1 [sotrastaurin]
How it was run: as §1

[9] = compound: CN1CCN(CCOc2cc(OC3CCOCC3)c3c(Nc4c(Cl)ccc5c4OCO5)ncnc3c2)CC1 [saracatinib]
How it was run: as §1

[10] = compound: CNc1nc(-c2ccc3c(N)n[nH]c3c2)cc(N2C[C@@H](C(=O)NC3CCCCC3)CC[C@H]2C)n1
How it was run: as §1

Measured: log2 fold change

RBBP8 isoform 2 (UniProt Q99708)
inactive: [1] 0.419 | [2] -0.032

RANGRF (UniProt Q9HD47)
inactive: [3] 0.044 | [4] -0.063

RASSF3 (UniProt Q86WH2)
inactive: [5] 0.146 | [2] 0.055 | [6] 0.037 | [3] -0.01 | [4] -0.065 | [7] -0.149

RBFA (UniProt Q8N0V3)
inactive: [3] 0.03 | [4] 0.027

2 entries picked at random from the list so far:
RBFA (UniProt Q8N0V3)
inactive: [3] 0.03 | [4] 0.027

RANGRF (UniProt Q9HD47)
inactive: [3] 0.044 | [4] -0.063

Next part:

RAB19 isoform 2 (UniProt A4D1S5)
inactive: [8] 0.144

RAB28 (UniProt P51157)
inactive: [9] -0.021 | [5] 0.007 | [2] -0.064 | [6] -0.023 | [10] -0.123 | [7] -0.134

RAPGEF1 isoform 3 (UniProt Q13905)
inactive: [8] 0.041

RANBP3 isoform 2 (UniProt Q9H6Z4)
inactive: [8] 0.109 | [1] -0.021 | [2] -0.043 | [3] -0.005 | [4] -0.113

RBM26 isoform 3 (UniProt Q5T8P6)
inactive: [8] -0.052

RASA3 (UniProt Q14644)
inactive: [9] -0.748 | [5] -0.043 | [10] 0.347

RBM28 (UniProt Q9NW13)
inactive: [8] 0.011 | [5] -0.141 | [2] 0.079 | [3] 0.444 | [4] 0.121

RBBP5 isoform 2 (UniProt Q15291)
inactive: [8] 0.091 | [1] -0.035 | [2] -0.127 | [6] -0.044 | [3] 0.102 | [4] 0 | [7] 0.196

RAB11FIP4 (UniProt Q86YS3)
inactive: [8] -0.019

RAI1 (UniProt Q7Z5J4)
inactive: [8] 0.357 | [2] -0.159
